Assay results: the supplement of paper PMC10849652
The list shows a part of the results. Residues, ends and D or L forms follow the SMILES beside them. *: point of attachment. Cbz = O=C(OCc1ccccc1)*

Chains of the proteins cited; added tags and fusions are not shown. Lines headed by an entry give the natural chain unless they say otherwise; changes in a name come on top.
UniProt O14613: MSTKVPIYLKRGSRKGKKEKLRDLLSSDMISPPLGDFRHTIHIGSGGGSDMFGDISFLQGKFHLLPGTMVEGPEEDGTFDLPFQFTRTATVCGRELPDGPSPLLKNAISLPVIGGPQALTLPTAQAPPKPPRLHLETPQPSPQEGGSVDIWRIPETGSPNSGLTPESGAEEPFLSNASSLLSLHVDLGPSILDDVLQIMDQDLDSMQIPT
UniProt O75956: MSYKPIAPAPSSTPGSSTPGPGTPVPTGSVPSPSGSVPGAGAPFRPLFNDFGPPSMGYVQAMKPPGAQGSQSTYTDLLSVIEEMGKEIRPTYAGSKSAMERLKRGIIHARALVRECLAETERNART
UniProt O96017, whole entry, looked up: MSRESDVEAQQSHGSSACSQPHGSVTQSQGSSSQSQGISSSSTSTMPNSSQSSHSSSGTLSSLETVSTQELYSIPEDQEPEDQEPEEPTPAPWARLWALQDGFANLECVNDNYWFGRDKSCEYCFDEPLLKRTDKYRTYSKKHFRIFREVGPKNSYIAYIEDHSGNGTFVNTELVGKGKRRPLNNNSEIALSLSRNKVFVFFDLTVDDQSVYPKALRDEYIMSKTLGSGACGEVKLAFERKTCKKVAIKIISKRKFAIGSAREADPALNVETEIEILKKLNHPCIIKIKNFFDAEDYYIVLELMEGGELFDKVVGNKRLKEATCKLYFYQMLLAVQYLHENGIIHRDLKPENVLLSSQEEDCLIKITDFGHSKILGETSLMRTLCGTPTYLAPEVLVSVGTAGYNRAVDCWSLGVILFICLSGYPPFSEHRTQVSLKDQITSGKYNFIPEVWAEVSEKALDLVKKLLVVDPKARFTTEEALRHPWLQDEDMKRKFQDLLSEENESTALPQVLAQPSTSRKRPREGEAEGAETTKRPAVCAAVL
UniProt A8MTT3: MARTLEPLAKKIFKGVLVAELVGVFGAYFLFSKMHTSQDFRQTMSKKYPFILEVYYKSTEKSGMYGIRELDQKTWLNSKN
UniProt Q71F23: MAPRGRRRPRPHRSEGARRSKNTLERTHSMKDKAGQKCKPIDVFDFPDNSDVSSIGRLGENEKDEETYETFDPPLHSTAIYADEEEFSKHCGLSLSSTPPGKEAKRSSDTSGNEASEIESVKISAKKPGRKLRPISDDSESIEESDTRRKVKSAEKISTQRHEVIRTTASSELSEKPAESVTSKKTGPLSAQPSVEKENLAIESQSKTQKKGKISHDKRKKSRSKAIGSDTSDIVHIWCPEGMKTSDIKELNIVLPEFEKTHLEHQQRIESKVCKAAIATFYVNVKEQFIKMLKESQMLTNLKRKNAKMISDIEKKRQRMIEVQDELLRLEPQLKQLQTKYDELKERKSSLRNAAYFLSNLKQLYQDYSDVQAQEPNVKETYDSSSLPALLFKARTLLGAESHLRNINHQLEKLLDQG
UniProt Q9UPN4: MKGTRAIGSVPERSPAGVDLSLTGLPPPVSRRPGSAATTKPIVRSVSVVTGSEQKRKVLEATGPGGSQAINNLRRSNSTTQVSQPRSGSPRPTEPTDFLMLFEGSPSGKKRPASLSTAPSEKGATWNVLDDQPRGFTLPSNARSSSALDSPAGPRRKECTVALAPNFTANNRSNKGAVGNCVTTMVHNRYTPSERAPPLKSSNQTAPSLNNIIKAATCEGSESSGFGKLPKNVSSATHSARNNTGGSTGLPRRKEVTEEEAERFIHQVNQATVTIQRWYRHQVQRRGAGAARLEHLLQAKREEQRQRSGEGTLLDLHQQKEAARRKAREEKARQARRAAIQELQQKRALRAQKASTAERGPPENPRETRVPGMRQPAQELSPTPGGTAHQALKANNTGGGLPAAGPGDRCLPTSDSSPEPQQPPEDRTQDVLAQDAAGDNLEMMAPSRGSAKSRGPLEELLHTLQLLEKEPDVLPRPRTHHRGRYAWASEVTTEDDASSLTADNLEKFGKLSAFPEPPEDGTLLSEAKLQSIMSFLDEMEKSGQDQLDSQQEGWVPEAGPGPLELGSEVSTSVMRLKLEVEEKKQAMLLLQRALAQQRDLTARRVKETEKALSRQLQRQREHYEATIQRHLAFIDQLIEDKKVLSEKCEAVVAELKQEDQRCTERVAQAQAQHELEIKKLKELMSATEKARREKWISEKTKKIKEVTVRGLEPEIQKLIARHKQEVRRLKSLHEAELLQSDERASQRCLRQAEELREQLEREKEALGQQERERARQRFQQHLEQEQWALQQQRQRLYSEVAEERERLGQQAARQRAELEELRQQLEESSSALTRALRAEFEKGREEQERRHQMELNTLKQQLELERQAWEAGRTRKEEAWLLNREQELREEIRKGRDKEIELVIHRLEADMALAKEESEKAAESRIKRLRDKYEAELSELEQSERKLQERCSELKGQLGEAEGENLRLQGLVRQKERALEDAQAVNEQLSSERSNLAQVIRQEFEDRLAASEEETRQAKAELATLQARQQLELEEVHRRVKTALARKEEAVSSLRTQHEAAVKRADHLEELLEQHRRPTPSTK
UniProt Q9BUK0: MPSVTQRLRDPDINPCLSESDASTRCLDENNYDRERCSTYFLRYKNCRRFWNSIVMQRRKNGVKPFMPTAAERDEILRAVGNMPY
UniProt Q9UKJ5: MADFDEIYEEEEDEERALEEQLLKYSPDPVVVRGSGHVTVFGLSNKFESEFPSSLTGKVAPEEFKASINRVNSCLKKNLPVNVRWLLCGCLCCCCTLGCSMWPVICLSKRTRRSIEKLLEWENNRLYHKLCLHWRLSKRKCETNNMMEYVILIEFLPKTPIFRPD
UniProt Q13111, whole entry, looked up: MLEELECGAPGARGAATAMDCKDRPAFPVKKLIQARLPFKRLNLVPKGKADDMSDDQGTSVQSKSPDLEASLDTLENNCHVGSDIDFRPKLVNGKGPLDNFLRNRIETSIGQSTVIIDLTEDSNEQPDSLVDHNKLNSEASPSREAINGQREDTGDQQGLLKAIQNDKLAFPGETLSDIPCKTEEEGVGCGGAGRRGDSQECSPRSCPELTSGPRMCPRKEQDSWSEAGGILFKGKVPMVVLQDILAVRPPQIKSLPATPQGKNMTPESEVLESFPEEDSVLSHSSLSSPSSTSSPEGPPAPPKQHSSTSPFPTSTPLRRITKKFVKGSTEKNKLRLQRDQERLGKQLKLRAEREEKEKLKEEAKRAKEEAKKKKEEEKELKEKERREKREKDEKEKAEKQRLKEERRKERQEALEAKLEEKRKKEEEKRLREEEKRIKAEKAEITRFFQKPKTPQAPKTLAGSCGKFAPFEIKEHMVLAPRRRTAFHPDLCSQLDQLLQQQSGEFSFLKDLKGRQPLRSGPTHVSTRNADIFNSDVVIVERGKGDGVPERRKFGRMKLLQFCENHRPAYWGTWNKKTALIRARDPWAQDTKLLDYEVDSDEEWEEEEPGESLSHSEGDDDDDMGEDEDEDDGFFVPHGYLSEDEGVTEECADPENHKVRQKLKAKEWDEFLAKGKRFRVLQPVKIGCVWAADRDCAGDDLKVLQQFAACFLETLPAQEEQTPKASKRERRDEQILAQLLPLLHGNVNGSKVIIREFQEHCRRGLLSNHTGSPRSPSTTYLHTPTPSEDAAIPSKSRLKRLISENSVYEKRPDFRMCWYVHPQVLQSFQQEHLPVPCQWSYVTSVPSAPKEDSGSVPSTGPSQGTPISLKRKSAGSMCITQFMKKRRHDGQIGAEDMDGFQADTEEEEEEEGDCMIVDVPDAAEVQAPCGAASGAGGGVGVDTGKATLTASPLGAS
UniProt Q00535, whole entry, looked up: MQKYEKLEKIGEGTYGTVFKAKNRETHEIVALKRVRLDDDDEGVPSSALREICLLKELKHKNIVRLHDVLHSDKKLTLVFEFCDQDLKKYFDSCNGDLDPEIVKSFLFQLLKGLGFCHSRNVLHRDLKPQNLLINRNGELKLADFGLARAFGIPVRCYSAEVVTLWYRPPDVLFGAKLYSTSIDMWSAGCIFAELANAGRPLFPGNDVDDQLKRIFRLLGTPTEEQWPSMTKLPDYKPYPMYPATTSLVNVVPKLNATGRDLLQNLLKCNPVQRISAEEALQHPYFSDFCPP
UniProt Q9BV73: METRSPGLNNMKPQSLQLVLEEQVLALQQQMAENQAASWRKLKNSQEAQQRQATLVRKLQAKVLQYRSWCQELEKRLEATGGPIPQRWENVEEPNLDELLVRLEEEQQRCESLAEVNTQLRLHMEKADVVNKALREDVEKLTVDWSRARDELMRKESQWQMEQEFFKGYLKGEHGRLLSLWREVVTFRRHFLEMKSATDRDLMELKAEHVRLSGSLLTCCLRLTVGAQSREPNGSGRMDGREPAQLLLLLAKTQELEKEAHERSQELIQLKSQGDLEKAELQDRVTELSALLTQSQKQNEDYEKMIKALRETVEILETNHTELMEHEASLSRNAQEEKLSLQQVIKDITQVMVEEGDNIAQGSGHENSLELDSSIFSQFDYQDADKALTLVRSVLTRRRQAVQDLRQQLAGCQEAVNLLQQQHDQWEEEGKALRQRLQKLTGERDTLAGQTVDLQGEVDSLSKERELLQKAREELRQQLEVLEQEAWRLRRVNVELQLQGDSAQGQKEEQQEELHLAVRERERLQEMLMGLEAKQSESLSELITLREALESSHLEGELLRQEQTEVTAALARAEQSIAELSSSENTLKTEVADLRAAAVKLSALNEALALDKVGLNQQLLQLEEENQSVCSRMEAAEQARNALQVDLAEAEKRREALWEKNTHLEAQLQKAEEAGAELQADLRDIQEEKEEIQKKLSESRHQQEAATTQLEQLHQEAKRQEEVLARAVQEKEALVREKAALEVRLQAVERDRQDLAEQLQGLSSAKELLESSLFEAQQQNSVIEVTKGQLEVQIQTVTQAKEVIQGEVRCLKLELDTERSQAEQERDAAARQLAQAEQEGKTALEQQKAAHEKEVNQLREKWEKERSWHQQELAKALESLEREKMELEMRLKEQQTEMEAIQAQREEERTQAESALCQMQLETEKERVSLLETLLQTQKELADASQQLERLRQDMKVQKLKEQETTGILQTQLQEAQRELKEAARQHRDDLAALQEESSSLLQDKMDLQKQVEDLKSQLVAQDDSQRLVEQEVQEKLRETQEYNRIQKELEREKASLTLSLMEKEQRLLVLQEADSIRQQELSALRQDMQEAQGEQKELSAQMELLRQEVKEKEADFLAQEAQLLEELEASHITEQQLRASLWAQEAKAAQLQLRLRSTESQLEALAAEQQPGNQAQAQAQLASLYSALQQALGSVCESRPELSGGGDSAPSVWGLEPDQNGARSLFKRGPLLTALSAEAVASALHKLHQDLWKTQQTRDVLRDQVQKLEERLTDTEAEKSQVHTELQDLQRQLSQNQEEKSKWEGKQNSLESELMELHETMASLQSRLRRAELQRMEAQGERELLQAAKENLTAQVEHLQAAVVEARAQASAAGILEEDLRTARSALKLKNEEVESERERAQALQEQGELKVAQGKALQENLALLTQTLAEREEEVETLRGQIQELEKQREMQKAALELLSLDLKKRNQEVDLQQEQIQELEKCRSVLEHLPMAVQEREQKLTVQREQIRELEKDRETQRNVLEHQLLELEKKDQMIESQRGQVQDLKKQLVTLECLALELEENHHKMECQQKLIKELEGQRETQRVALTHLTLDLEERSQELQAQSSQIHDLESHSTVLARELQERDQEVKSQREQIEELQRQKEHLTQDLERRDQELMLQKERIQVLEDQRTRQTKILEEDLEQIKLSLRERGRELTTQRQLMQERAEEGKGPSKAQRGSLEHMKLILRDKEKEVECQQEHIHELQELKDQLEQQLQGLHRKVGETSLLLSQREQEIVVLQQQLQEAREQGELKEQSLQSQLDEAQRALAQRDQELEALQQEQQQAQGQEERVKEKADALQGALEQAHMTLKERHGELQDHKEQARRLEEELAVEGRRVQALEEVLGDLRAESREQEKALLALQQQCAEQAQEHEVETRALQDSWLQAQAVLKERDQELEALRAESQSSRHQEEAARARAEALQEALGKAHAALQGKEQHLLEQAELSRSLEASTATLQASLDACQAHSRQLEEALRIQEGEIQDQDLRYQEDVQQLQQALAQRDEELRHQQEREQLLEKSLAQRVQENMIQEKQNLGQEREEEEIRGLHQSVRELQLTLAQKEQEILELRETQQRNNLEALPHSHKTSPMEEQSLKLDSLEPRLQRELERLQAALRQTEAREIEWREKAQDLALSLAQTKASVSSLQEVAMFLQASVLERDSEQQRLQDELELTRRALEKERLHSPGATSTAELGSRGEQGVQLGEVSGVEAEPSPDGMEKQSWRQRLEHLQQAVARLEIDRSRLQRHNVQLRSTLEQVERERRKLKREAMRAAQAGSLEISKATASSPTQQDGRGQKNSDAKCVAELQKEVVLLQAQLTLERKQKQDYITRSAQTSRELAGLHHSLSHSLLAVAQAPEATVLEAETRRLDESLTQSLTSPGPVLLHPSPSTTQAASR
UniProt Q8WYQ3: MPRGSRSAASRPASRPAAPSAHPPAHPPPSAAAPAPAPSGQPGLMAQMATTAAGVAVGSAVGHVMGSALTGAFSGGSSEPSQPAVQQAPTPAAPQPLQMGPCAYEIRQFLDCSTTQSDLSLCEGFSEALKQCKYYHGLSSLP

Key:
Assay in all cases: log2 fold change, soluble protein after heating vs DMSO (PISA); higher = thermal stabilisation; K562 cells, 10 uM, 30 min; active = over 0.2 and 3.5 SD of the protein, either way, in both replicates (recomputed)
erlotinib = compound: C#Cc1cccc(Nc2ncnc3cc(OCCOC)c(OCCOC)cc23)c1 [erlotinib]
Summary of the method: (§1)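 Quantification of soluble protein used TMTpro 16plex LC-MS/MS, with channel sums equalised. Samples were the supernatant after 21,000xg for 90 min of pooled aliquots from K562 cells (2×10^6 cells/mL) treated with 10 μM compound for 30 min, heated for 3 min over 48°C-58°C, and extracted in PBS with 0.5% NP-40 at 4°C. Values, from duplicates, describe thermal stability against control samples on a log2 fold-change scale.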

[1] = compound: C/C(=N\NC(=O)C1=CC(=CC=C1)S(=O)(=O)N2CCOCC2)/C3=C(C=CC(=C3)Cl)O
Summary of the method: as §1

[2] = compound: C1=CC(=C(C=C1Cl)C2=NC3=NC=CN=C3C(=N2)NC4=CC=NC=C4)F
Summary of the method: as §1

[3] = compound: C1=CC(=CC=C1C2=NC3=C(N2)C=C(C=C3)C(=O)N)OC4=CC=C(C=C4)Cl
Summary of the method: as §1

[4] = compound: C1=CC2=NC=CN=C2C=C1/C=C/3\C(=O)NC(=O)S3
Summary of the method: as §1

[5] = compound: C1=CC=C(C=C1)C2=NC(=C(N2)C3=CC=NC=C3)C4=CC(=C(C=C4)Cl)O
Summary of the method: as §1

[6] = compound: C1=CC=C2C(=C1)C3=NNC4=CC=CC(=C43)C2=O
Summary of the method: as §1

[7] = compound: C1CCN(C1)C(=O)NC2=CC=CC(=C2)NC3=NC=C(C(=N3)NCCC4=CN=CN4)Br
Summary of the method: as §1

[8] = compound: C1CN(CCC1(CC2=CC=C(C=C2)Cl)N)C3=NC=NC4=C3C=CN4
Summary of the method: as §1

IRAK-1-4 Inhibitor I = compound: C1COCCN1CCN2C3=CC=CC=C3N=C2NC(=O)C4=CC(=CC=C4)[N+](=O)[O-] [IRAK-1-4 Inhibitor I]
Summary of the method: as §1

ibrutinib = compound: C=CC(=O)N1CCC[C@@H](n2nc(-c3ccc(Oc4ccccc4)cc3)c3c(N)ncnc32)C1 [ibrutinib]
Summary of the method: as §1

[9] = compound: CC(=O)c1cnc2ccc(-c3cc(Cl)c(O)c(Cl)c3)nc2c1N[C@H]1CC[C@H](CN(C)C)CC1
Summary of the method: as §1

ralimetinib = compound: CC(C)(C)Cn1c(N)nc2ccc(-c3[nH]c(C(C)(C)C)nc3-c3ccc(F)cc3)nc21 [ralimetinib]
Summary of the method: as §1

[10] = compound: CC(C)(O)CC(=O)NCCn1ccc2ncnc(Nc3ccc(Oc4cccc(C(F)(F)F)c4)c(Cl)c3)c21
Summary of the method: as §1

[11] = compound: CC(C)C1=C2N=C(C=C(N2N=C1)NCC3=CC=CC=C3)NCCCCCCN
Summary of the method: as §1

[12] = compound: CC(C)C[C@@H](C=O)NC(=O)[C@H](CC(C)C)NC(=O)[C@H](CC(C)C)NC(=O)OCc1ccccc1
Summary of the method: as §1

pinometostat = compound: CC(C)N(C[C@H]1O[C@@H](n2cnc3c(N)ncnc32)[C@H](O)[C@@H]1O)[C@H]1C[C@@H](CCc2nc3cc(C(C)(C)C)ccc3[nH]2)C1 [pinometostat]
Summary of the method: as §1

[13] = compound: CC1=C(C(CC(=O)N1)C2=CC=C(C=C2)C(F)(F)F)C(=O)NC3=C(C=C4C(=C3)C=NN4)F
Summary of the method: as §1

[14] = compound: CC1=C(C2=C(C=C1)C(=O)C3=CC=CC=C3N2CCCN)C
Summary of the method: as §1

[15] = compound: C1=CC2=C(C=CC(=C2)/C=C\3/C(=O)NC(=NCC4=CC=CS4)S3)N=C1
Summary of the method: as §1

Target | log2 fold change (erlotinib) | log2 fold change [1] | log2 fold change [2] | log2 fold change [3] | log2 fold change [4] | log2 fold change [5] | log2 fold change [6] | log2 fold change [7] | log2 fold change [8] | log2 fold change (IRAK-1-4 Inhibitor I) | log2 fold change (ibrutinib) | log2 fold change [9] | log2 fold change (ralimetinib) | log2 fold change [10] | log2 fold change [11] | log2 fold change [12] | log2 fold change (pinometostat) | log2 fold change [13] | log2 fold change [14] | log2 fold change [15]
CDK2 (UniProt P24941) | inactive: -0.006 | inactive: -0.016 | inactive: 0.023 | inactive: -0.018 | inactive: 0.004 | inactive: -0.01 | inactive: -0.032 | inactive: -0.028 | inactive: 0.034 | inactive: 0.023 | inactive: 0.018 | inactive: 0.133 | inactive: -0.053 | inactive: -0.018 | inactive: -0.01 | inactive: 0.014 | inactive: -0.003 | inactive: -0.003 | inactive: 0.028 | 
CDC42EP2 (UniProt O14613) | inactive: 0.192 |  | inactive: -0.147 | inactive: 0.082 | inactive: 0.008 |  |  | inactive: 0.028 | inactive: 0.084 |  | inactive: 0.158 |  |  | inactive: -0.141 | inactive: -0.139 |  |  |  | inactive: -0.187 | 
CDK2AP2 (UniProt O75956) | inactive: -0.142 | inactive: -0.007 | inactive: 0.037 | inactive: 0.043 | inactive: 0.103 | inactive: 0.007 | inactive: 0 |  |  | inactive: -0.087 | inactive: 0.011 | inactive: 0.094 | inactive: 0 | inactive: -0.077 | inactive: 0.258 | active: -0.438 | inactive: -0.135 |  |  | inactive: 0.063
CHEK2 isoform 9 (UniProt O96017) | inactive: -0.041 | inactive: 0.117 | inactive: 0.093 |  | inactive: 0.032 | inactive: 0.04 | inactive: 0.079 | inactive: -0.027 | inactive: 0.107 | inactive: 0.043 | inactive: -0.019 | inactive: -0.113 | inactive: 0.029 | inactive: -0.014 | inactive: -0.007 | inactive: -0.051 | inactive: 0.014 | inactive: 0.026 | inactive: 0.022 | inactive: -0.006
CEBPZOS (UniProt A8MTT3) | inactive: -0.017 | inactive: 0.084 |  | inactive: 0.015 | inactive: 0.074 | inactive: 0.03 | inactive: 0.057 | inactive: 0.05 | inactive: -0.03 | inactive: -0.034 | inactive: -0.095 | inactive: 0.003 | inactive: -0.076 |  | inactive: 0.018 | inactive: -0.059 | inactive: -0.026 |  | inactive: 0 | inactive: 0.039
CENPU (UniProt Q71F23) | inactive: -0.142 | inactive: -0.502 | inactive: -0.334 | inactive: -0.047 |  |  | inactive: -0.381 | inactive: 0.01 | inactive: 0 | inactive: -0.121 |  | inactive: 0.088 |  | inactive: 0.01 | inactive: 0.124 |  | inactive: 0.184 |  | inactive: -0.191 | inactive: -0.202
CEP131 (UniProt Q9UPN4) | inactive: 0.005 | inactive: -0.08 | inactive: -0.235 | inactive: 0.045 |  |  | inactive: -0.041 | inactive: -0.004 | inactive: 0.023 | inactive: -0.101 |  | inactive: -0.004 |  | inactive: 0.078 | inactive: 0.135 |  | inactive: 0.128 |  | inactive: 0.03 | inactive: 0.029
CENPC (UniProt Q03188) | inactive: -0.3 | inactive: -0.177 | inactive: -0.062 | inactive: 0.001 |  |  | inactive: -0.107 |  |  | inactive: 0.103 |  | inactive: -0.129 |  | inactive: 0.1 | inactive: 0.099 |  | inactive: 0.315 | inactive: 0.095 |  | inactive: 0.025
CENPJ (UniProt Q9HC77) | inactive: 0.113 | inactive: 0.12 | inactive: -0.099 | inactive: 0.044 |  | inactive: 0.067 | inactive: -0.15 | inactive: -0.097 | inactive: 0.06 | inactive: -0.058 |  | inactive: -0.147 | inactive: 0.402 | inactive: 0.004 | inactive: -0.15 | inactive: 0.339 | inactive: 0.161 |  | inactive: 0.058 | inactive: -0.101
CHCHD7 isoform 4 (UniProt Q9BUK0) | inactive: 0.094 | inactive: -0.013 |  | inactive: -0.029 | inactive: 0.007 | inactive: -0.012 | inactive: -0.002 | inactive: -0.011 | inactive: 0.01 | inactive: 0.026 | inactive: 0.022 | inactive: -0.01 | inactive: -0.05 |  | inactive: -0.007 | inactive: 0.095 | inactive: -0.069 | inactive: 0.089 | inactive: -0.095 | inactive: -0.013
CHIC2 (UniProt Q9UKJ5) | inactive: -0.026 | inactive: -0.019 | inactive: -0.005 | inactive: -0.021 | inactive: 0.163 | inactive: -0.007 | inactive: 0.033 |  |  |  | inactive: -0.089 | inactive: 0 | inactive: 0.071 | inactive: -0.176 | inactive: -0.119 | inactive: -0.07 |  | inactive: -0.046 |  | inactive: 0.063
CDC5L (UniProt Q99459) | inactive: -0.048 | inactive: -0.015 |  | inactive: 0.026 |  | inactive: 0.01 | inactive: 0.003 | inactive: 0.05 | inactive: 0.155 | inactive: -0.175 |  | inactive: -0.139 | inactive: 0.01 |  | inactive: 0.387 | inactive: 0.196 | inactive: 0.145 |  | inactive: -0.272 | inactive: -0.064
CDK17 isoform 2 (UniProt Q00537) | inactive: 0.086 | inactive: 0.008 | inactive: 0.059 | inactive: -0.075 | inactive: -0.081 |  | inactive: 0.064 |  |  | inactive: 0.101 | inactive: 0.003 | inactive: 0.258 |  | inactive: -0.069 | inactive: 0.078 |  | inactive: 0.037 |  |  | inactive: -0.123
CHAF1A (UniProt Q13111) | inactive: -0.046 | inactive: -0.014 | inactive: -0.121 | inactive: 0.053 | inactive: 0.135 | inactive: -0.047 | inactive: -0.114 |  |  | inactive: 0 | inactive: -0.143 | inactive: -0.118 | inactive: 0.056 | inactive: 0.067 | inactive: -0.066 | inactive: 0.08 | inactive: -0.028 |  |  | inactive: 0.027
CDK5 (UniProt Q00535) | inactive: -0.02 | inactive: -0.009 | inactive: 0.041 | inactive: -0.008 | inactive: 0.052 | inactive: -0.02 |  | inactive: 0.017 | inactive: 0.038 | inactive: 0.008 | inactive: -0.009 | inactive: 0.038 | inactive: 0.032 | inactive: -0.07 | inactive: -0.021 | inactive: 0.043 | inactive: 0.024 |  | inactive: 0.028 | inactive: -0.014
CEP250 (UniProt Q9BV73) | inactive: -0.149 |  | inactive: -0.145 | inactive: 0.042 | inactive: -0.036 | inactive: 0.074 |  | inactive: -0.073 | inactive: -0.132 | inactive: 0.011 | inactive: 0.068 |  | inactive: 0.007 | inactive: 0 | inactive: -0.155 | inactive: 0.064 | inactive: -0.032 | inactive: -0.117 | inactive: -0.102 | 
CENPP (UniProt Q6IPU0) | inactive: 0.019 |  | inactive: -0.086 | inactive: -0.039 | inactive: -0.069 | inactive: 0.028 |  | inactive: 0.188 | inactive: 0.026 | inactive: -0.071 | inactive: 0.111 |  | inactive: 0.038 | inactive: -0.077 | inactive: -0.026 | inactive: 0.052 | inactive: -0.014 | inactive: 0 | inactive: -0.083 | 
CHCHD10 (UniProt Q8WYQ3) | inactive: -0.151 |  | inactive: -0.033 | inactive: -0.087 | inactive: 0.05 | inactive: 0.19 |  |  |  | inactive: -0.245 | inactive: 0.017 |  | inactive: -0.13 | inactive: -0.081 | inactive: 0.047 | inactive: -0.217 | inactive: -0.094 | inactive: 0.037 |  | 
CHIC1 (UniProt Q5VXU3) | inactive: -0.047 | inactive: -0.062 | inactive: -0.277 | inactive: -0.018 | inactive: 0.175 | inactive: -0.088 | inactive: 0.017 | inactive: 0.09 | inactive: 0.019 |  | inactive: -0.152 | inactive: 0.011 | inactive: -0.104 | inactive: 0.049 | inactive: -0.04 | inactive: 0.236 |  | inactive: -0.008 | inactive: 0.036 | inactive: 0.339

Look-ups from the list:
log2 fold change (ralimetinib), CDK5 (UniProt Q00535) reads inactive: 0.032
log2 fold change (erlotinib), CEP250 (UniProt Q9BV73) reads inactive: -0.149
